From paper PMC4407832 come the findings set out here.

The chains behind the UniProt entries cited, without tags or fusion partners.
UniProt P34152: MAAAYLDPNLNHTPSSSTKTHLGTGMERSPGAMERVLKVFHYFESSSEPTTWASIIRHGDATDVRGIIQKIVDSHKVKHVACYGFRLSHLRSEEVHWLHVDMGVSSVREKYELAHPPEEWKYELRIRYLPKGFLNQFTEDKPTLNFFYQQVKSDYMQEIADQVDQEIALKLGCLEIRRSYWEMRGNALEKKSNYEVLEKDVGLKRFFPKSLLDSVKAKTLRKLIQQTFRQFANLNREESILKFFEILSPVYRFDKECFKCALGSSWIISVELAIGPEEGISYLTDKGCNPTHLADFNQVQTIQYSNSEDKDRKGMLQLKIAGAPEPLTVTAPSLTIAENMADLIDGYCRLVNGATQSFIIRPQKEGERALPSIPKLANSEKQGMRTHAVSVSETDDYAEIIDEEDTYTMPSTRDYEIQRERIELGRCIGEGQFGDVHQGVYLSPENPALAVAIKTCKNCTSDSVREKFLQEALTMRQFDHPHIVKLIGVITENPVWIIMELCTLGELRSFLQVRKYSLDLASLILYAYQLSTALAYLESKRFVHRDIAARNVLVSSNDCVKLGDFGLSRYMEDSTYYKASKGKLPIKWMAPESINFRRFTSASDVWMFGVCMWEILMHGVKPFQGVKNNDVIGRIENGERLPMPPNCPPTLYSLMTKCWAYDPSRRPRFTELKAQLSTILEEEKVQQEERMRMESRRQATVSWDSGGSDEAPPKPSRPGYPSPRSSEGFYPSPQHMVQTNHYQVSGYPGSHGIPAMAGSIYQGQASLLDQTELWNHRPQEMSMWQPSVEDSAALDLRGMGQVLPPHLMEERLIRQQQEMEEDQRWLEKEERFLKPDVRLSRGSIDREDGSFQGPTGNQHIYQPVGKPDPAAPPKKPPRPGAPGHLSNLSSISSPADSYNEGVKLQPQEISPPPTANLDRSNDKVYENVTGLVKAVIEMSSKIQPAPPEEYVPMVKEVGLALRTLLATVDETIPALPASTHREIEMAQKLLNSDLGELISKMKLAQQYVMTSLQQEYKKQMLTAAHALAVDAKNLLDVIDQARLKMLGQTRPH
UniProt Q05397: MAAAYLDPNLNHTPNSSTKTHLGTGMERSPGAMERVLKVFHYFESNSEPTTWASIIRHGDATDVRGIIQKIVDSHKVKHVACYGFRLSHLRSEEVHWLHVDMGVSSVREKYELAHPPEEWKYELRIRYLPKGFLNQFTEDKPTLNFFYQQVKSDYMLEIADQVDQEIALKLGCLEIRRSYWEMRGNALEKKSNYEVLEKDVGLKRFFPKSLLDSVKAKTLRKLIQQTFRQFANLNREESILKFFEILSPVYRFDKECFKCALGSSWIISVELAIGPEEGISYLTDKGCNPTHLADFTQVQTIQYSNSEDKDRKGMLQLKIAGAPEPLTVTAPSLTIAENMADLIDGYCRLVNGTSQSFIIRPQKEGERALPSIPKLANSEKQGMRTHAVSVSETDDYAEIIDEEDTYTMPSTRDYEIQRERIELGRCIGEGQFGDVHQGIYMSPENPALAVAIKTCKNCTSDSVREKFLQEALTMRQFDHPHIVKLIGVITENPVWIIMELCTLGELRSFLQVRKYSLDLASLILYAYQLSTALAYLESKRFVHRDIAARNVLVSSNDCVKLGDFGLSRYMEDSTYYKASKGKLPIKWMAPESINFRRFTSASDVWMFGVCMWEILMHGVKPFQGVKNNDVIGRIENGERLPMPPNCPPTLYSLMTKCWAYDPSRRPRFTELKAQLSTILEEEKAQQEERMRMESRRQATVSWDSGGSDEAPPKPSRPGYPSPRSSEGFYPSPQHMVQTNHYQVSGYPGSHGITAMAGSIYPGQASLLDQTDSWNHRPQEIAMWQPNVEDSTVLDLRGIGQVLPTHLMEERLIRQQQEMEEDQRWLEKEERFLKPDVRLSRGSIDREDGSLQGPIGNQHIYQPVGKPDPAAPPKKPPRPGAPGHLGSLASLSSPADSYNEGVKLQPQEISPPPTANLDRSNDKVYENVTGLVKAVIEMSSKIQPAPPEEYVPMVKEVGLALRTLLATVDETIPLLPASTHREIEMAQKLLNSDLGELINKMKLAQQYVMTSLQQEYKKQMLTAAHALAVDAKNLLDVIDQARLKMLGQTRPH
UniProt P06748: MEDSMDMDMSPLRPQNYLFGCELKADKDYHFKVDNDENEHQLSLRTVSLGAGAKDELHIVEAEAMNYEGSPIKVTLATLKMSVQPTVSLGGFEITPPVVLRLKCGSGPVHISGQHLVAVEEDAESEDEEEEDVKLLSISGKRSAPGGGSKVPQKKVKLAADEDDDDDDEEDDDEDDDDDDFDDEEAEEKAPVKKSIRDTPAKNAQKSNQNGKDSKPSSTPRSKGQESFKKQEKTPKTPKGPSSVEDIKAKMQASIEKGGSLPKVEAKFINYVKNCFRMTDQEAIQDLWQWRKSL

No constants are given. Whether binding was seen depends on the method and setting. In cells and extracts the contact can be indirect. Some binding calls cover weakened binding; strength is not graded here. For some assays here: Where a sequence is shown, tags or fusion partners need not be part of it.

Assay [1] has as its target T1, GFP-NS (green fluorescent protein tagged human nucleostemin) (human) (UniProt Q9BVP2).
T1 sequence: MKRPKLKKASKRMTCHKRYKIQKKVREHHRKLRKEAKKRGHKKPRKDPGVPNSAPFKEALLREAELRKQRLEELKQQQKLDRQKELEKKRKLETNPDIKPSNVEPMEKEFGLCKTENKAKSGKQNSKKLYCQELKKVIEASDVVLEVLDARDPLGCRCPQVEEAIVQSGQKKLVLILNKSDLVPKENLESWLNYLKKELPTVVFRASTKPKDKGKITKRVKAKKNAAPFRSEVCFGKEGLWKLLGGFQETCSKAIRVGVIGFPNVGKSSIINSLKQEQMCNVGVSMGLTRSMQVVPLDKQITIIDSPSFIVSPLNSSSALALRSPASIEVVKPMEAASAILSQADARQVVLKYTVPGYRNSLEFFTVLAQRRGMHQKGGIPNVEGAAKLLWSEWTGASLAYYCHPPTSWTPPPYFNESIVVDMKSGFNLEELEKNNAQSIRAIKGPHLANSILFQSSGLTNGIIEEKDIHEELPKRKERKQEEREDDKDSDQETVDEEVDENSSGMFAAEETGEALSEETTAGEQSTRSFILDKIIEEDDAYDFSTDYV
Kind of assay: co-IP; anti-GFP antibody, overnight at 4°C, protein A Plus agarose; lysates of MDA-MB-231 cells transfected with GFP or GFP-NS; immunoblot for GFP, mTOR, FAK and Akt. For orientation: In western blotting, separated proteins are transferred to a membrane and probed.

The target of assay [2] is GFP-tagged murine FAK wildtype (focal adhesion kinase) (murine) (UniProt P34152). Kind of assay: co-IP; polyclonal anti-FAK antibody, overnight at 4°C, protein A Plus agarose; lysates of three FAK-WT and three FAK-KD MDA-MB-231 orthotopic tumors; immunoblot for B23.

Take “focal adhesion kinase (FAK), endogenous (from UniProt Q05397 1-1052) (enzyme)”: the binding entry in assay [1] is “binds”.

Turning to “nucleolar phosphoprotein B23 (nucleophosmin) (from UniProt P06748 1-294)”, the binding result in assay [2] is on record as “binds”.
